Results are given in words; binding and its absence hold for the method and conditions named. In cells and extracts the contact can be indirect. Some results given as binding are weak or reduced against the parent protein; the word gives no strength.

Chains of the proteins cited; added tags and fusions are not shown. Residues count along the entry.
UniProt Q9BQB4, residues 24-213: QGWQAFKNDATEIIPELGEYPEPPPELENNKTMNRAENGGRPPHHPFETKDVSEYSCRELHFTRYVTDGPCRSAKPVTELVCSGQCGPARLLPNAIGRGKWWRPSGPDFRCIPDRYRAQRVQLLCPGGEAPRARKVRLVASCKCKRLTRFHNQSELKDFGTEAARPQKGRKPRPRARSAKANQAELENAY
UniProt P40763: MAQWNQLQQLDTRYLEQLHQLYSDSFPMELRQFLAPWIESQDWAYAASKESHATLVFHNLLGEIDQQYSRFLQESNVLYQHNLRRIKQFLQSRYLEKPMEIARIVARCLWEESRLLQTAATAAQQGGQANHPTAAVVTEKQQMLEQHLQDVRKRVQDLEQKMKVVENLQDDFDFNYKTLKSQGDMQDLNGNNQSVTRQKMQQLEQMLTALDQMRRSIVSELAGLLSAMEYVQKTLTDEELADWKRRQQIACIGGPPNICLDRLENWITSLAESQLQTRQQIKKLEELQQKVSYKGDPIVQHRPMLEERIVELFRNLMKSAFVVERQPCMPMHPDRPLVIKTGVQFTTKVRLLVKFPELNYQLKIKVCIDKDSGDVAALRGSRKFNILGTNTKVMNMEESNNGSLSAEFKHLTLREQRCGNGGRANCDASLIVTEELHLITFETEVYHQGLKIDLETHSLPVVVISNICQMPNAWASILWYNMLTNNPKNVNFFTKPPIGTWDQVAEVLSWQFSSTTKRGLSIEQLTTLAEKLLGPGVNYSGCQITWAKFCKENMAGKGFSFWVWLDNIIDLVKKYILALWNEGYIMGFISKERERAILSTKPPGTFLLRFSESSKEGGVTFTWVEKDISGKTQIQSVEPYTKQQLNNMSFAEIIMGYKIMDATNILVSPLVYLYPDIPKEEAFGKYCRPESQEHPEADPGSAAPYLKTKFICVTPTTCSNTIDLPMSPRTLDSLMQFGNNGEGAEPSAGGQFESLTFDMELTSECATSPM

For test [1], the target named is Sclerostin (SOST) (human (endogenous in SCP2)) (UniProt Q9BQB4). As to the kind of experiment: co-IP; SCP2 cell lysate in RIPA buffer (50 µg/tube) with anti-SOST, anti-STAT3 or control isotype IgG (2 µg), 4 °C overnight; protein A/G plus-agarose beads; blotted with anti-STAT3 or anti-SOST.
Test [2] addresses Signal transducer and activator of transcription 3 (STAT3) (human (endogenous in SCP2)) (UniProt P40763). The test is described as above.
Test [3] has the same target. In words: condition: only lysate pre-treated with 200 μM S6 compound; co-IP; as a1, but the SCP2 cell lysate (1 ml) was pre-treated with 200 μM S6 compound at room temperature for one hour before the antibodies were added.

As for “Signal transducer and activator of transcription 3 (STAT3) (from UniProt P40763 1-770)”, the binding result in test [1] was “binds”. For the substance “Sclerostin (SOST) (from UniProt Q9BQB4 24-213)”, the binding result in test [2] is “binds”; in test [3], “no binding”.

Source of the values: paper PMC9798707, “Targeting SOST using a small-molecule compound retards breast cancer bone metastasis” (Molecular Cancer, 2022).
